PubChem BioAssay AID1224826 – NIAID | 2016
Screen: 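Genes that change LPS-induced Tnf promoter activity in mouse macrophages when knocked down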 (primary screen). Cell system: RAW264.7 G9 macrophages from mouse bearing reporters for p65 (GFP) and the Tnf promoter (mCherry). Reagent: siRNA pool against mouse genes, 100 nM. Time to read-out: 16 h of LPS stimulation, after 2 days of siRNA transfection. Conditions: bacterial lipopolysaccharide (Salmonella minnesota R595), 10 ng/ml. Measured: 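Imaged Tnf reporter mCherry in nuclei, minus background, normalised per plate to the median and expressed as robust z-scores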. Scale: Tnf reporter robust z-score: higher = stronger Tnf promoter reporter signal after LPS. Hit rule: 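Called active when robust z-score is at most -1.3, matching the median of the Tlr4 knock-down control, or over 3; control wells and wells with under 50 cells never active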. Meaning of the calls: active = Tnf reporter clearly lowered or raised; inactive = no clear change in Tnf reporter.
The deposit covers about 17,000 reagents; this is a part drawn at random. In the full data, about 1,110 (6.6%) got an active call. 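Active means lowered or raised reporter signal; replicate intensities are raw and not normalised per plate.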 Entries without a mark were called inactive. Some reagents were tested in more than one well and are listed for each. Further read-outs or replicates are left out here.

Against Pipox, the values are Tnf reporter robust z-score 1.28; fewer than 50 cells in well enough cells in well.
For Nr1d2 the deposit lists Tnf reporter robust z-score -0.82; fewer than 50 cells in well enough cells in well.
Against Mrpl45, the entry reads Tnf reporter robust z-score -0.51; fewer than 50 cells in well enough cells in well.
Depletion of Hhipl2 came out at: fewer than 50 cells in well fewer than 50 cells per well; well left out of calls.
Dpagt1 gave Tnf reporter robust z-score 0.65; fewer than 50 cells in well enough cells in well.
With knock-down of Pigo, the record shows Tnf reporter robust z-score 0.19; fewer than 50 cells in well enough cells in well.
Adra1b gave Tnf reporter robust z-score -0.25; fewer than 50 cells in well enough cells in well.
Against Adra1b the deposit lists Tnf reporter robust z-score 0.55; fewer than 50 cells in well enough cells in well.
After knock-down of 4833432P19Rik (retired record), the record shows Tnf reporter robust z-score 0.5; fewer than 50 cells in well enough cells in well.

2 entries already listed, sorted by “Tnf reporter robust z-score”, highest first:
Adra1b | Tnf reporter robust z-score = 0.55; fewer than 50 cells in well = enough cells in well
4833432P19Rik (retired record) | Tnf reporter robust z-score = 0.5; fewer than 50 cells in well = enough cells in well

Additional results:
Against Gramd4, the values are Tnf reporter robust z-score 0.9; fewer than 50 cells in well enough cells in well.
Knock-down of Tnfrsf4 came out at: Tnf reporter robust z-score -0.01; fewer than 50 cells in well enough cells in well.
After knock-down of Bphl, the record shows Tnf reporter robust z-score 0.83; fewer than 50 cells in well enough cells in well.
Shh gave Tnf reporter robust z-score 0.68; fewer than 50 cells in well enough cells in well.
Depletion of Zfp768 resulted in: Tnf reporter robust z-score -0.44; fewer than 50 cells in well enough cells in well.
